Literature values, collected in patent publication US20250025414A1, “READY-DELIVERY ORAL DOSAGE FORM FOR LABORATORY ANIMALS” (Duquesne University of the Holy Spirit, priority 2023, published 2025).

Tested on: humans or household pets
Settings: cited from earlier work

## CC[N+](CC)(CC(=O)Nc1c(C)cccc1C)Cc1ccccc1 [denatonium benzoate]
By humans or household pets
  concentration at which a liquid containing it is considered undrinkable: 30-100 ppm
Used as aversive additive
  concentration at which perceived as bitter: 1-10 ppm
